Reference: patent publication US20240201167A1 (ALBERT EINSTEIN COLLEGE OF MEDICINE, published 2024)
Where a chain is given by its changes, count along the chain named. Names and notes keep the numbering of the source. No constants are given. Whether binding was seen depends on the method and setting. Some binding calls cover weakened binding; strength is not graded here. Blank lines part the entries; values can stand above or below the molecule they belong to.

What was measured:
[1] = biological target: human p75 neurotrophin receptor, full length, expressed on HEK 293 cells (Homo sapiens) (UniProt P08138); assay: Fc fusion titrated on transfected cells, flow cytometry
[2] = biological target: T1, B7-1-hIgG1-biotin (human, UniProt P33681 35-233, biotin on the AVI tag (BirA)); assay: Fc fusion titrated on streptavidin beads coated with B7-1-hIgG1-biotin, flow cytometry
T1 construct: Loaded on streptavidin beads; the paragraph gives residues only; also called B7-1-Fc-biotin; hB7-1 (residues 35-233) hIgG1-His10-AVI; not shown: C-terminal 10xHis and AVI tagged hIgG1 Fc domain
T1 chain: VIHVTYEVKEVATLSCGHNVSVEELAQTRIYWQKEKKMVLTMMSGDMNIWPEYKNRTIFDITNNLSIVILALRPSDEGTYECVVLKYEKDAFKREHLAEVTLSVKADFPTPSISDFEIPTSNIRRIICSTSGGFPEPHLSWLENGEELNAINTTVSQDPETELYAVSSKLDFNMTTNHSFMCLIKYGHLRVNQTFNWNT

[3] = biological target: human p75 neurotrophin receptor, full length, expressed on HEK 293 cells (Homo sapiens) (UniProt P08138); assay: cell-cell screen, flow cytometry
[4] = biological target: human p75 neurotrophin receptor, full length, expressed on HEK 293 cells (Homo sapiens) (UniProt P08138); assay: cell-cell binding, flow cytometry
[5] = biological target: T2, mouse p75NTR (mouse, UniProt Q9Z0W1 32-427); assay: cell-cell binding, flow cytometry
T2 construct: whole, on cells; also called mouse p75NTR-GFP; murine p75
T2 sequence (looked up): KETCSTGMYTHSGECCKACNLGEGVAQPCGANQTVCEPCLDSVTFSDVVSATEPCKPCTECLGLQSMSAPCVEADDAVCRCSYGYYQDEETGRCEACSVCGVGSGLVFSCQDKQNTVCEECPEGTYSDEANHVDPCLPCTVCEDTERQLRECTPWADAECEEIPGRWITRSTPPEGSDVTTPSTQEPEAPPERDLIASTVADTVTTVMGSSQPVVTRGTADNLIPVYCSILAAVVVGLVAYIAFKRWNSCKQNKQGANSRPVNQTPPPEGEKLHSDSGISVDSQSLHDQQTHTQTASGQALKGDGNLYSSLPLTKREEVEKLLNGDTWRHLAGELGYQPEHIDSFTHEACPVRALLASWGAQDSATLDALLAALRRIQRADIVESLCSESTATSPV

[6] = biological target: T3, rat p75NTR expressed on cells (rat, UniProt P07174 30-425); assay: cell-cell binding, flow cytometry
T3 construct: whole, on cells; also called rat p75NTR-GFP; rodent p75NTR
T3 sequence (looked up): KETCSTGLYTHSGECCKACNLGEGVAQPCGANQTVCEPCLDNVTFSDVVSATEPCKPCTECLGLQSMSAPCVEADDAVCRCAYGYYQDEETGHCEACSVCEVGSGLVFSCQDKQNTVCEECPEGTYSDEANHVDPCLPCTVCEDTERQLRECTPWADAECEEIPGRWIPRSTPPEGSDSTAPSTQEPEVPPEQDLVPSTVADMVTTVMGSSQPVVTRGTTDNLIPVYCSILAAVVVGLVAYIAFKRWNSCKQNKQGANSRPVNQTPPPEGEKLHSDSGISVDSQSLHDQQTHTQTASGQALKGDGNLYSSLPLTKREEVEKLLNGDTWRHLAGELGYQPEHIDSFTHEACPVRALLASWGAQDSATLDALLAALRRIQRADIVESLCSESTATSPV

[7] = biological target: T2, mouse p75NTR; assay: summary of the cell-cell binding results
[8] = biological target: human p75 neurotrophin receptor, full length, expressed on HEK 293 cells (Homo sapiens) (UniProt P08138); assay: summary of the cell-cell binding results
[9] = biological target: human B7-1 (CD80), full length, expressed on HEK 293 cells (Homo sapiens) (UniProt P33681); assay: cell-cell screen, flow cytometry
[10] = biological target: T4, human B7-1 N82E on cells (Homo sapiens, UniProt P33681 35-280); assay: cell-cell binding, flow cytometry
T4 construct: C-terminally fused to mCherry; also called ASN82 GLU
T4 chain: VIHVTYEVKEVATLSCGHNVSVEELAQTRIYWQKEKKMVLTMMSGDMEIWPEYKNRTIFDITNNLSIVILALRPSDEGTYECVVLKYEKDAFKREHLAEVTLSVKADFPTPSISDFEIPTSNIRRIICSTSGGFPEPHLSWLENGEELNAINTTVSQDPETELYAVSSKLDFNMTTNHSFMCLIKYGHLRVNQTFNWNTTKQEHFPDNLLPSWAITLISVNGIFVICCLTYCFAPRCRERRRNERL

Molecule: B7-1-Fc (recombinant human B7-1 ectodomain Fc fusion, made in house) (from UniProt P33681 35-233)
- binding [1]: binds

B3: human p75 neurotrophin receptor, full length, expressed on HEK 293 cells (receptor)
chain: KEACPTGLYTHSGECCKACNLGEGVAQPCGANQTVCEPCLDSVTFSDVVSATEPCKPCTECVGLQSMSAPCVEADDAVCRCAYGYYQDETTGRCEACRVCEAGSGLVFSCQDKQNTVCEECPDGTYSDEANHVDPCLPCTVCEDTERQLRECTRWADAECEEIPGRWITRSTPPEGSDSTAPSTQEPEAPPEQDLIASTVAGVVTTVMGSSQPVVTRGTTDNLIPVYCSILAAVVVGLVAYIAFKRWNSCKQNKQGANSRPVNQTPPPEGEKLHSDSGISVDSQSLHDQQPHTQTASGQALKGDGGLYSSLPPAKREEVEKLLNGSAGDTWRHLAGELGYQPEHIDSFTHEACPVRALLASWATQDSATLDALLAALRRIQRADLVESLCSESTATSPV
notes: Full-length human p75 with a cytosolic fluorescent tag (GFP); also called p75NTR; NGFR
- binding [9]: binds

B4: human p75NTR F136K on cells (receptor)
chain: B3 chain with F108K
notes: Fluorescent-tagged point mutant
- binding [10]: binds

B5: human p75NTR F136H on cells (receptor)
chain: B3 chain with F108H
notes: as for B4
- binding [10]: binds

The remaining lines, values ahead:

- binding [2]: binds
B1: p75NTR-mIgG2a (Fc fusion)
chain: KEACPTGLYTHSGECCKACNLGEGVAQPCGANQTVCEPCLDSVTFSDVVSATEPCKPCTECVGLQSMSAPCVEADDAVCRCAYGYYQDETTGRCEACRVCEAGSGLVFSCQDKQNTVCEECPDGTYSDEANHVDPCLPCTVCEDTERQLRECTRWADAECEEIPGRWITRSTPPEGSDSTAPSTQEPEAPPEQDLIASTVAGVVTTVMGSSQPVVTRGTTDN
notes: Full-length ectodomain; also called p75-mIgG2A; recombinant p75 mIgG2a; not shown: C-terminal mIgG2a-His10 Fc domain

- binding [3]: binds
- binding [4]: binds
- binding [5]: binds
- binding [6]: binds
- binding [7]: binds
- binding [8]: binds
B2: human B7-1 (CD80), full length, expressed on HEK 293 cells (ligand)
chain: T4 chain with E48N
notes: also called hB7-1; B7-1-mCherry
